From PubChem BioAssay AID328 (DTP/NCI, 2004)
The list does not hold the whole screen: it is rich in T/C values a quarter to a half above the control, in often repeated tests (any T/C) and in doses without a T/C. Further doses and runs are listed elsewhere. T/C is the treated group as % of the vehicle group. Some doses have a count of surviving animals in place of a T/C: the source files T/C as zero there, which appears to mark a toxic dose or a test without result, not a measured value. Some doses without a T/C left all or most animals alive at the check, yet need not have been tolerated: the source hardly ever lists a survival T/C far under the control, and the zero likely stands for such cases as well. Survivors were counted at the toxicity check, usually on the fifth day, unless a day is given; later deaths do not show. Schedule codes are those of the source, read here as Q, the interval in days (D) or hours (H), X, the number of doses. Some entries were tested several times; their values stand side by side, smallest first. Where survival is the endpoint, this PubChem deposit counts one and a half times the control or more as active, and values a quarter to a half above the control carry no call in these data; other NCI protocols may use other cut-offs. Brackets with × give the number of equal values in this list. Some T/C values are followed by the survivors on the day toxicity was checked, most often the fifth; without a count, all were alive then.

Tested on: BDF1 mice, P388 leukemia ip, median survival T/C
Assay: NCI In Vivo Anticancer Drug Screen. Data for tumor model P388 Leukemia (intraperitoneal) in B6D2F1 (BDF1) mice
Conditions: T/C endpoint: median survival time, higher T/C = longer survival
Summary of the method: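 Steps: implant the tumour, treat one group with compound and another with vehicle, record survival, then divide treated by control.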

[1] = dose: 200.0 mg/kg/injection, schedule: Q01DX009 (ip), vehicle: Klucel (hydroxypropylcellulose) (HPC)
[2] = dose: 100.0 mg/kg/injection, schedule: Q01DX009 (ip), vehicle: saline with Tween-80
[3] = dose: 200.0 mg/kg/injection, schedule: Q01DX009 (ip), vehicle: saline with Tween-80
[4] = dose: 200.0 mg/kg/injection, schedule: Q04DX003 (ip), vehicle: saline with Tween-80
[5] = dose: 12.5 mg/kg/injection, schedule: Q01DX009 (ip), vehicle: saline
[6] = dose: 25.0 mg/kg/injection, schedule: Q01DX009 (ip), vehicle: saline
[7] = dose: 50.0 mg/kg/injection, schedule: Q01DX009 (ip), vehicle: saline
[8] = dose: 50.0 mg/kg/injection, schedule: Q01DX009 (ip), vehicle: saline with Tween-80
[9] = dose: 50.0 mg/kg/injection, schedule: Q04DX003 (ip), vehicle: saline with Tween-80
[10] = dose: 100.0 mg/kg/injection, schedule: Q04DX003 (ip), vehicle: saline with Tween-80
[11] = dose: 400.0 mg/kg/injection, schedule: Q04DX003 (ip), vehicle: saline with Tween-80
[12] = dose: 200.0 mg/kg/injection, schedule: Q01DX009 (ip), vehicle: saline

`Nc1nc(SSc2nc(N)nc3c2ncn3C2CC(O)C(CO)O2)c2ncn(C3CC(O)C(CO)O3)c2n1` (stereo not drawn) was tested, and the survivor count [1] was 6 of 6 and the survivor count (dose: 400.0 mg/kg/injection, schedule: Q01DX009 (ip), vehicle: Klucel (hydroxypropylcellulose) (HPC)) was 2 of 6.

For `CC[CH2][Pb]([Cl])([CH2]CC)[CH2]CC`, the survivor count (dose: 12.5 mg/kg/injection, schedule: Q01DX009 (ip), vehicle: DMSO) was 0 of 6, the survivor count (dose: 25.0 mg/kg/injection, schedule: Q01DX009 (ip), vehicle: DMSO) was 0 of 6 and the survivor count (dose: 50.0 mg/kg/injection, schedule: Q01DX009 (ip), vehicle: DMSO) was 0 of 6.

`Cc1ccccc1NC=O` was tested, and the T/C [2] was 145 % of control and the T/C [3] was 145 % of control.

With `Nc1ccc(S(=O)(=O)c2cc(O)c3ccccc3c2O)cc1` the survivor count (dose: 35.0 mg/kg/injection, schedule: Q01DX009 (ip), vehicle: Klucel (hydroxypropylcellulose) (HPC)) was 0 of 6, the T/C (dose: 55.0 mg/kg/injection, schedule: Q01DX009 (ip), vehicle: Klucel (hydroxypropylcellulose) (HPC)) was 135 % of control and the survivor count (dose: 80.0 mg/kg/injection, schedule: Q01DX009 (ip), vehicle: Klucel (hydroxypropylcellulose) (HPC)) was 1 of 6.

`CCOC(=O)C(N)CSC(c1ccccc1)(c1ccccc1)c1ccccc1` (stereo not drawn) was tested, and the T/C (dose: 22.0 mg/kg/injection, schedule: Q04DX003 (ip), vehicle: saline) was 127 % of control.

With `CCCOc1ccc(-c2nc(-c3ccc(N=Cc4ccc(N(CCOS(C)(=O)=O)CCOS(C)(=O)=O)cc4C)cc3)cs2)cc1` the T/C [4] was 134 % of control.

`N#Cc1nc2ccccc2nc1C#N` was tested, and the survivor count [5] was 6 of 6, the T/C [6] was 127 % of control and the survivor count (dose: 50.0 mg/kg/injection, schedule: Q01DX009 (ip), vehicle: Klucel (hydroxypropylcellulose) (HPC)) was 4 of 6. The T/C [7] was 138 % of control, the survivor count (dose: 75.0 mg/kg/injection, schedule: Q01DX009 (ip), vehicle: Klucel (hydroxypropylcellulose) (HPC)) was 0 of 6 and 5 of 6 and the survivor count (dose: 115.0 mg/kg/injection, schedule: Q01DX009 (ip), vehicle: Klucel (hydroxypropylcellulose) (HPC)) was 0 of 6. For the same compound, the survivor count (dose: 170.0 mg/kg/injection, schedule: Q01DX009 (ip), vehicle: Klucel (hydroxypropylcellulose) (HPC)) was 0 of 6.

For `O=[N+]([O-])c1ccc(/C=N/c2ncc(Br)s2)o1`, the T/C [8] was 125 % of control, the T/C [9] was 127 % of control (2×) and the survivor count [9] was 5 of 6. The T/C [10] was 136 % of control, the survivor count [10] was 1 of 6 and the survivor count [4] was 0 of 6 and 3 of 6.

For `C/C(=C/c1cc2c(cc1Br)OCO2)[N+](=O)[O-]`, the T/C [11] was 126 % of control [5 of 6 alive].

With `C/C(=C\c1ccc(N(C)C)cc1C)[N+](=O)[O-]` the T/C [3] was 128 % of control and the T/C (dose: 400.0 mg/kg/injection, schedule: Q01DX009 (ip), vehicle: saline with Tween-80) was 127 % of control.

In the case of `CC(=O)N1N=C(N)SC1c1ccc(Cl)c(Cl)c1` (stereo not drawn), the survivor count [3] was 0 of 6.

In the case of `O=C1NN(c2ccccc2)C(=O)/C1=C\c1ccccc1`, the T/C (dose: 87.5 mg/kg/injection, schedule: Q01DX009 (ip), vehicle: saline with Tween-80) was 129 % of control, the T/C (dose: 175.0 mg/kg/injection, schedule: Q01DX009 (ip), vehicle: saline with Tween-80) was 133 % of control and the T/C (dose: 350.0 mg/kg/injection, schedule: Q01DX009 (ip), vehicle: saline with Tween-80) was 133 % of control.

`NNC(=S)SCc1ccccc1` was tested, and the survivor count (dose: 60.0 mg/kg/injection, schedule: Q01DX009 (ip), vehicle: saline with Tween-80) was 3 of 7.

For `COc1ccc(CC2C(=O)NC(C)C(=O)N(C)C3C(=O)N(C)C(Cc4ccc(O)c(c4)Oc4ccc(cc4)C3O)C(=O)NC(C)C(=O)NC(C)C(=O)N2C)cc1` (stereo not drawn) (tested in a mixture with another compound), the survivor count (dose: 4.0 mg/kg/injection, schedule: Q01DX009 (ip), vehicle: alcohol) was 6 of 6 and the survivor count (dose: 4.0 mg/kg/injection, schedule: Q01DX009 (ip), vehicle: carboxymethylcellulose (CMC)) was 3 of 6.

In the case of `CCCCCCCCCCOP(=S)(N1CC1)N1CC1`, the T/C (dose: 9.0 mg/kg/injection, schedule: Q04DX003 (ip), vehicle: saline with Tween-80) was 126 % of control, the T/C (dose: 20.0 mg/kg/injection, schedule: Q04DX003 (ip), vehicle: saline with Tween-80) was 138 % of control and the T/C (dose: 30.0 mg/kg/injection, schedule: Q04DX003 (ip), vehicle: saline with Tween-80) was 142 % of control.

For `O=C(Nc1ccccc1)c1ccc(C(F)(F)F)cc1O`, the T/C [6] was 137 % of control and the T/C [7] was 130 % of control.

For `OC1CCCC2CCC[N-]C12.OC1CCCC2CCC[N-]C12.[Mn+2]` (stereo not drawn), the T/C (dose: 200.0 mg/kg/injection, schedule: Q01DX009 (ip), vehicle: DMSO) was 130 % of control.

In the case of `O=C(C/C(=N\C(=S)Nc1cc(C(F)(F)F)ccc1Cl)NO)N1CCCC1`, the T/C [2] was 131 % of control and the survivor count [3] was 6 of 6.

`C1OCN2CSCC12` (stereo not drawn) was tested, and the T/C (dose: 200.0 mg/kg/injection, schedule: Q04DX002 (ip), vehicle: suspension in saline) was 126 % of control [5 of 6 alive] and the T/C (dose: 400.0 mg/kg/injection, schedule: Q04DX002 (ip), vehicle: suspension in saline) was 126 % of control.

`CC(CS(=O)(=O)O)NC(CO)(CO)CO` (stereo not drawn) was tested, and the survivor count [12] was 6 of 6.

With `CC(C)NCc1ccccc1Sc1ccccc1` the survivor count (dose: 200.0 mg/kg/injection, schedule: Q01DX001 (ip), vehicle: saline with Tween-80) was 0 of 6 and the survivor count (dose: 400.0 mg/kg/injection, schedule: Q01DX001 (ip), vehicle: saline with Tween-80) was 0 of 6.

With `S=c1nn[nH]n1-c1ccccc1.[Zn+2]` the survivor count [3] was 2 of 6.

`CCCCCCOc1cccc(OCCCC[N+]2(CC)CCCCC2)c1` was tested, and the survivor count [5] was 0 of 6 and the survivor count [6] was 0 of 6.

With `COC(=O)C(Br)C(Br)c1ccccc1` (stereo not drawn) the T/C [3] was 127 % of control.

In the case of `S=C(Nc1ccccn1)Nc1ccccn1`, the T/C [1] was 126 % of control.

With `O=C(CC(c1ccccc1)c1c(O)c2ccccc2oc1=O)c1ccccc1` (stereo not drawn) the survivor count (dose: 6.25 mg/kg/injection, schedule: Q01DX009 (ip), vehicle: saline with Tween-80) was 5 of 6, the survivor count (dose: 12.5 mg/kg/injection, schedule: Q01DX009 (ip), vehicle: saline with Tween-80) was 3 of 6 and the survivor count (dose: 25.0 mg/kg/injection, schedule: Q01DX009 (ip), vehicle: saline with Tween-80) was 2 of 6. For the same compound, the survivor count [8] was 1 of 6, the survivor count [2] was 1 of 6 and the survivor count [3] was 2 of 6.

`NC(=Nc1ccc(Cl)cc1)/N=C(/N)N1CCN(/C(N)=N/C(N)=Nc2ccc(Cl)cc2)CC1` was tested, and the T/C [6] was 133 and 140 % of control, the survivor count [7] was 6 of 6 and the T/C (dose: 200.0 mg/kg/injection, schedule: Q04DX003 (ip), vehicle: saline) was 130 % of control. For the same compound, the survivor count (dose: 225.0 mg/kg/injection, schedule: Q01DX001 (ip), vehicle: Klucel (hydroxypropylcellulose) (HPC)) was 2 of 6 and the survivor count (dose: 335.0 mg/kg/injection, schedule: Q01DX001 (ip), vehicle: Klucel (hydroxypropylcellulose) (HPC)) was 0 of 6.

For `CCCCC(C)(O)CC` (stereo not drawn), the survivor count [11] was 1 of 6.

`C/C=C(/C)C(=O)O[C@H]1CCN2CC=C(COC(=O)[C@@](O)([C@H](C)OC)C(C)(C)O)[C@H]12` was tested, and the survivor count (dose: 50.0 mg/kg/injection, schedule: Q01DX010 (ip), vehicle: saline) was 6 of 6 and the survivor count (dose: 100.0 mg/kg/injection, schedule: Q01DX010 (ip), vehicle: saline) was 0 of 6.

`CC(=O)OCC(=O)[C@@]1(O)CC[C@H]2[C@@H]3CCC4=CC(=O)CC[C@]4(C)[C@@]3(F)[C@@H](O)C[C@@]21C` was tested, and the survivor count (dose: 200.0 mg/kg/injection, schedule: Q01DX009 (sc), vehicle: steroid suspending solution) was 6 of 6 and the survivor count (dose: 400.0 mg/kg/injection, schedule: Q04DX003 (sc), vehicle: steroid suspending solution) was 6 of 6.

For `NC(=O)OCc1c(O)c2c(c(O)c1COC(N)=O)C(=O)C=CC2=O`, the survivor count (dose: 100.0 mg/kg/injection, schedule: Q01DX009 (ip), vehicle: water) was 6 of 6, the survivor count (dose: 200.0 mg/kg/injection, schedule: Q01DX009 (ip), vehicle: water) was 5 of 6 and the survivor count (dose: 400.0 mg/kg/injection, schedule: Q01DX009 (ip), vehicle: water) was 3 of 6.

In the case of `Nc1ccc(Cl)c(Cl)c1`, the survivor count [12] was 4 of 6.
